Tested on: cabbage leaf discs
Assay: Rain-fastness study on cabbage leaf discs

`COc1cc(C=O)ccc1O` [0.1% Vanillin Technical in water, 4-Hydroxy-3-methoxybenzaldehyde] was tested, and the “% vanillin retained on leaf after 1 h” value (0.1% vanillin, washed with 10 mL water 1 h after application) was 25.7%, the “% vanillin retained on leaf after 2 h” value (0.1% vanillin, washed with 10 mL water 2 h after application) was 47.3% and the “% vanillin retained on leaf after 4 h” value (0.1% vanillin, washed with 10 mL water 4 h after application) was 37.0%. The “% vanillin retained on leaf after 6 h” value (0.1% vanillin, washed with 10 mL water 6 h after application) was 47.6%, the “% vanillin retained on leaf after 24 h” value (0.1% vanillin, washed with 10 mL water 24 h after application) was 39.4% and the “Active ingredient washed off by simulated rain” value (deposit allowed to dry for 24 hours) was “approximately 60%”.

Reference: patent US20160157479A1, “ANTIFUNGAL COMPOSITION AND METHOD” (OMEX INTERNATIONAL LIMITED, priority 2013, published 2016)
